Patent US20140294765A1 (COMPUGEN, published 2014)

Key:
[1] = target: endogenous human LSR protein of cancer cell lines (human); assay: flow cytometry with hybridoma supernatant after LSR siRNA against scrambled siRNA (FIG. 17)
[2] = target: endogenous human LSR protein of cancer cell lines (human); assay: flow cytometry on HT29 cells (endogenous LSR) with 8C8 hybridoma supernatant, after LSR-specific or scrambled siRNA (30 pmol), FL1-H
[3] = target: endogenous human LSR protein of cancer cell lines (human); assay: flow cytometry on HepG2/C3A cells (endogenous LSR) with 8C8 hybridoma supernatant, after LSR-specific or scrambled siRNA (50 pmol), FL1-H

Measured: binding

B1: 8C8, mouse IgG2a monoclonal antibody against human LSR (antibody, V domains shown)
VH: DVKLVESGGGLVKLGGSLKLSCAASGFTFSSYYMSWVRQTPEKRLELVAAINSNGGSTYYPDTVKGRFTISRDNAKNTLYLQMSSLKSEDTALYYCARHDYYGSSFAMDYWGQGTSVTVSS
VL: DIQMTQTTSSLSASLGDRVTISCRASQDISNYLNWYQQKPDGTVKLLIYYTSRLHSGVPSRFSGSGSGTDYSLTISNLEQEDIATYFCQQDSKHPWTFGGGTKLEIK
notes: also called 8C8 mAb; mAb 8C8
binds: [1] | [2] | [3]

Results are given in words; binding and its absence hold for the method and conditions named. A result given as binding can be weak or reduced; the word gives no strength.
